# Measured values published in PubChem BioAssay AID652054 (National Center for Advancing Translational Sciences (NCATS), 2013).
# Sequences of proteins named here, by UniProt entry; tags and fusion partners are left off.
# UniProt P35462, whole entry, looked up: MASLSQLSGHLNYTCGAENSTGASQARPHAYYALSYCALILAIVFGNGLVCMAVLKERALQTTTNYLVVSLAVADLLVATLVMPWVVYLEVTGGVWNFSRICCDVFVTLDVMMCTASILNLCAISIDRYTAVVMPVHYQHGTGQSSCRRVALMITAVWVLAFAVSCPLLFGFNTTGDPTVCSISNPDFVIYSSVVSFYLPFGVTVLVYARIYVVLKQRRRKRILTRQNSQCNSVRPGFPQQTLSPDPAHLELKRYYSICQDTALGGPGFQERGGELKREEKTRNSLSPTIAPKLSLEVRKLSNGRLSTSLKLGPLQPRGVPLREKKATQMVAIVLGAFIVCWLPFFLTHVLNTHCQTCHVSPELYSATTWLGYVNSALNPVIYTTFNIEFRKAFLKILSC
# Screen size: about 360,000 compounds; about 9,100 (2.5%) were called active. The inconclusive results got no clear call from the source; some entries with a clear call stand among them for comparison. Rule as the data show it: active = max response below about -50%; inconclusive = no clear call, values can overlap the other calls; inactive = above that.
# Target: D(3) dopamine receptor (Homo sapiens) (UniProt P35462)
# Assay: qHTS of D3 Dopamine Receptor Antagonist: qHTS
# Conditions: D3R cells, DiscoveRx beta-arrestin luminescence, antagonist mode; hits give low values
# Procedure, shortened: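 Cells expressing the human receptor were seeded at 1500 cells/well, incubated overnight at 37 degrees C in 5% CO2, then exposed to library compounds with dopamine controls for 90 minutes at 37 degrees C before luminescent detection.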
# % is scaled to controls: 0 for no effect and ±100 for the full control effect.
row,SMILES,"max response, negative = inhibition"
1,CC(=O)c1ccc(OCCCC(=O)Nc2ccc(C)c(S(=O)(=O)N3CCOCC3)c2)cc1,inconclusive: -34.1%
2,CC(c1ccccc1)N1CC(C(=O)Nc2ccc(F)cc2)CC1=O (stereo unspecified),inconclusive: -37.1%
3,NC(=O)c1cc([N+](=O)[O-])c(Cl)cc1NCc1ccccn1,inconclusive: -49.9%
4,CCc1nc2ccc(C(=O)Nc3cc(-c4ccccc4)ccc3OC)cn2c1N(C)CCCc1ccccc1,inconclusive: -49%
5,c1csc(-c2nnc(N3CCCCCC3)c3ccccc23)c1,inconclusive: -34.2%
6,COc1ccc(CNCC(O)(c2ccc(Cl)cc2)c2ccc(Cl)cc2)cc1OC,inconclusive: -45.8%
7,CN(C)C(CNC(=O)c1sc2ccccc2c1Cl)c1ccco1 (stereo unspecified),inconclusive: -32.7%
8,CC(CN1CCCC1)OC(=O)c1ccccc1Cl (stereo unspecified),inconclusive: -30.1%
9,COc1cccc2cc(NC(=O)C3CCCCC3)c(=O)oc12,inactive: 3.93%
10,Cn1cccc1/C=C1\SC(=S)N(CC(=O)O)C1=O,inconclusive: -36.3%
11,CC(=O)Nc1ccc(S(=O)(=O)Oc2ccc(Br)cc2C(=S)N2CCOCC2)cc1,inconclusive: -40%
12,CCOc1ccc(NC(=S)N(CCc2c(C)[nH]c3ccccc23)Cc2ccco2)cc1,inconclusive: -49%
13,CCCCn1nnnc1C(c1cccs1)N1CCN(C/C=C/c2ccccc2)CC1 (stereo unspecified),inconclusive: -46.6%
14,Cc1cc(C)c(NC(=O)COC(=O)Cn2nc(-c3ccccc3)oc2=O)c(C)c1,active: -55.2%
15,Cn1c(/C(C#N)=C(\O)c2ccccc2Cl)nc2ccccc21,inconclusive: -33.3%
16,CCOC(=O)C1CCCN(CCC(=O)Nc2ccc3c(c2)CCC3)C1 (stereo unspecified),active: -55.7%
17,COc1ccccc1-c1cc(C(=O)NCc2ccc(F)cc2)no1,inconclusive: -47.1%
18,COC(=O)c1cn(N(C)c2ncc(C(F)(F)F)cc2Cl)c(=O)c2ccccc12,inconclusive: -30.1%
19,Oc1ccccc1-c1n[nH]c(=S)n1Cc1ccccc1,inconclusive: -39.6%
20,CCC1CCCCN1C(=O)COC(=O)c1n[nH]c2ccccc12 (stereo unspecified),inactive: 1.99%
21,COc1ccccc1NC(=O)c1cc2c(CO)cnc(C)c2oc1=Nc1ccccc1,inactive: 21%

row,SMILES,"max response, negative = inhibition"
1,CCn1nc(C)c(CN2CCC(C(=O)Nc3cccc(-c4cccc(F)c4)c3)CC2)c1C,inconclusive: -31.2%
2,OC(CN1CCCCC1)CN(c1ccccc1)c1ccccc1 (stereo unspecified),inconclusive: -31.9%
3,COc1cc(-c2cc(C(=O)N3CCN(c4ccccn4)CC3)c3ccccc3n2)cc(OC)c1OC,inactive: 13.8%
4,COc1ccc(C2CC(c3ccc4ccccc4c3)=NN2C(=O)COC(=O)C2CCC(=O)N2)cc1 (stereo unspecified),inactive: -13.2%
5,CC(C)CCC(CCN1CCOCC1)c1ccc2c(c1)OCO2 (stereo unspecified),inconclusive: -48.6%
6,C=C1C(O)[C@@H]2O[C@]3(CC[C@H](/C=C/C(C)[C@@H]4CC(C)=CC5(O[C@H](C[C@@](C)(O)CO)CCC5O)O4)O3)CC[C@H]2O[C@@H]1C(O)CC(C)[C@H]1OC2(CCCCO2)CCC1C (stereo partly specified),active: -78.5%
7,Cc1c(NC(=O)c2ccc(Cl)c([N+](=O)[O-])c2)cccc1-n1cnnn1,inconclusive: -34.1%
8,O=C(Nc1cccc2ccccc12)C1CCN(C(=O)Cc2ccccc2)CC1,inconclusive: -49.8%
9,O=C1CCN(CCCc2ccccc2)CCN1[C@H](CO)Cc1ccccc1,inconclusive: -45.7%
10,CCc1ccc2c(c1)C(=O)c1ccccc1C2=O,inactive: 14.3%
11,CC1=NN(C(=O)c2ccc(Cn3cc(Br)c([N+](=O)[O-])n3)o2)C(O)(C(F)(F)F)C1 (stereo unspecified),inconclusive: -47.2%
12,CC(=O)c1ccc(N2CCC(c3cc(-c4ccc(Cl)cc4)n[nH]3)CC2)c([N+](=O)[O-])c1,inconclusive: -31.5%
13,Clc1cccc(N2CCN(CCCN3CCN(c4ccccc4)CC3)CC2)c1,active: -78.6%
14,COc1cc(CNc2ncc(-c3ccc(Br)cc3)n2C)cc(OC)c1OC,inconclusive: -35.1%
15,Cc1ccc(C(=O)NCCc2sc(C)nc2C)cc1,inconclusive: -35.8%
16,CCOC(=O)Cc1cc(=O)n2[nH]c(C)c(-c3ccc(OC)cc3)c2n1,inconclusive: -43.2%
17,O=C(c1ccc(Br)cc1)c1cc([N+](=O)[O-])ccc1N1CCCCC1,inconclusive: -31.7%
18,CN(C)c1ccc(CNC(=O)CN(C)S(=O)(=O)c2ccc3c(c2)c(=O)n(C)c(=O)n3C)cc1,inactive: -8.53%
19,CCOc1ccc(CCN2C(=S)N([C@@H](Cc3ccc(O)cc3)CN3CCC[C@@H]3CN3C(=S)NC[C@@H]3Cc3ccc(O)cc3)C[C@@H]2Cc2ccc(O)cc2)cc1,inconclusive: -31.8%
20,COc1ccc(CCn2c(N)c(C(=O)NCc3ccco3)c3nc4ccccc4nc32)cc1,inconclusive: -32.1%

# Ten compounds already listed, arranged by molar mass, smallest number first:
row,SMILES,"max response, negative = inhibition"
10,CCc1ccc2c(c1)C(=O)c1ccccc1C2=O,inactive: 14.3%
15,Cc1ccc(C(=O)NCCc2sc(C)nc2C)cc1,inconclusive: -35.8%
2,OC(CN1CCCCC1)CN(c1ccccc1)c1ccccc1 (stereo unspecified),inconclusive: -31.9%
5,CC(C)CCC(CCN1CCOCC1)c1ccc2c(c1)OCO2 (stereo unspecified),inconclusive: -48.6%
9,O=C1CCN(CCCc2ccccc2)CCN1[C@H](CO)Cc1ccccc1,inconclusive: -45.7%
17,O=C(c1ccc(Br)cc1)c1cc([N+](=O)[O-])ccc1N1CCCCC1,inconclusive: -31.7%
13,Clc1cccc(N2CCN(CCCN3CCN(c4ccccc4)CC3)CC2)c1,active: -78.6%
1,CCn1nc(C)c(CN2CCC(C(=O)Nc3cccc(-c4cccc(F)c4)c3)CC2)c1C,inconclusive: -31.2%
11,CC1=NN(C(=O)c2ccc(Cn3cc(Br)c([N+](=O)[O-])n3)o2)C(O)(C(F)(F)F)C1 (stereo unspecified),inconclusive: -47.2%
18,CN(C)c1ccc(CNC(=O)CN(C)S(=O)(=O)c2ccc3c(c2)c(=O)n(C)c(=O)n3C)cc1,inactive: -8.53%
